The structures given here were assigned with low confidence; some may be wrong.
Target: human BACE1 (Homo sapiens, UniProt P56817)
Test: Fluorescent kinetic assay: Evaluation of BACE-1 Binding Affinity of Test Compounds
Details: read-out: BACE-1 IC50 μM; 10 nM enzyme, 25 μM substrate WABC-6, 50 mM Na-Acetate pH 4.5, room temperature

Protein sequences, listed by entry. Tags and fused reporters are not part of them. Residues count along the entry.
UniProt P56817, 46-501 limits assumed: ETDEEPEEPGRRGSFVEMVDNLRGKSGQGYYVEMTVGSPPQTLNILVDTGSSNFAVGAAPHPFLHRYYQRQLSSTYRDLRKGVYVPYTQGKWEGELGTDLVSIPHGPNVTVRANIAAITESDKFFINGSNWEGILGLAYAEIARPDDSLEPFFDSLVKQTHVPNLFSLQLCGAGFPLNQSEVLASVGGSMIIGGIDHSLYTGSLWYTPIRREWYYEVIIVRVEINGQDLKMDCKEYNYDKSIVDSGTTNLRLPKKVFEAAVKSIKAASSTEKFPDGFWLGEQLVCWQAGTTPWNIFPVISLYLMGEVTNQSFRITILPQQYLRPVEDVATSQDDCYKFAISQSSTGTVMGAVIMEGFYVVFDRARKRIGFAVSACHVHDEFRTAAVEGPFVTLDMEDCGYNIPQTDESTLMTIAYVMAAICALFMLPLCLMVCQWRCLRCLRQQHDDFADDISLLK

Structure (SMILES)	IC50 [µM]
CCC(=O)c1cc(C2(c3cccc(OCCF)c3)N=C(N)N(C)C2=O)cn1CC (centres unmarked)	0.11 to 1
CCCCCn1cc(C2(c3ccc(OC(F)F)cc3)N=C(N)N(C)C2=O)cn1 (centres unmarked)	> 1
